Record: PubChem BioAssay AID1159579 (Peter MacCallum Cancer Centre, 2015)

- Screen: 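Find genes whose silencing alters migration of lymphatic endothelial cells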 (follow-up of hits)
- Cells: human dermal lymphatic endothelial cells
- Knock-down reagent: single siRNA against human genes, 25 nM
- Detection: 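High content images of wound closure area and cell nuclei counts, each the average of two wells, expressed against mock transfection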
- Direction: migration relative to mock: higher = more migration into the scratch; mean nuclei count: higher = more cells remaining
- Call rule: 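Called active when the migration ratio is 0.6 or lower (impaired) or 1.3 or higher (accelerated), but inactive whenever the mean nuclei count falls under 3300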
- Meaning of the calls: active = migration changed (impaired or accelerated); inactive = no migration change, or too few cells
In all, the deposit lists about 2,000 reagents; below is a random part of them. 549 of all reagents (27%) count as active. 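Some migration ratios are negative; siRNAs with too few cells are inactive whatever their migration ratio.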 Reagents against one gene are numbered here. Not stated in the record: the time to read-out.

| gene knocked down | reagent no. | migration relative to mock | migration and cell number class | mean nuclei count | activity call |
| --- | --- | --- | --- | --- | --- |
| PSEN2 | 1 | 0.3 | migration reduced | 5232 | active |
| PSEN2 | 2 | 0.7 | no change in migration or cell number | 7498 | inactive |
| PSEN2 | 3 | 0.54 | migration reduced | 5973 | active |
| PSEN2 | 4 | 0.6 | migration reduced | 5054 | active |
| EFNA3 | 1 | 0.51 | migration reduced | 5103 | active |
| EFNA3 | 2 | 1.08 | no change in migration or cell number | 6604 | inactive |
| EFNA3 | 3 | 0.92 | no change in migration or cell number | 6084 | inactive |
| EFNA3 | 4 | 0.46 | migration reduced | 5110 | active |
| CALM2 | 1 | 0.86 | no change in migration or cell number | 5610 | inactive |
| CALM2 | 2 | 0.38 | migration reduced | 3915 | active |
| CALM2 | 3 | 0.97 | no change in migration or cell number | 4690 | inactive |
| CALM2 | 4 | 0.44 | migration reduced | 3494 | active |
| LRFN4 | 1 | 0.89 | no change in migration or cell number | 5392 | inactive |
| LRFN4 | 2 | 0.52 | migration reduced | 5680 | active |
| LRFN4 | 3 | 0.89 | no change in migration or cell number | 5087 | inactive |
| LRFN4 | 4 | 0.68 | no change in migration or cell number | 5096 | inactive |
| UGT1A7 | 1 | 0.66 | no change in migration or cell number | 4865 | inactive |
| UGT1A7 | 2 | 0.34 | migration reduced | 4190 | active |
| UGT1A7 | 3 | 0.44 | migration reduced | 5212 | active |
| UGT1A7 | 4 | 0.78 | no change in migration or cell number | 5434 | inactive |
| AOC3 | 1 | 0.28 | migration reduced | 4179 | active |
| AOC3 | 2 | 1.06 | no change in migration or cell number | 6255 | inactive |
| AOC3 | 3 | 0.44 | migration reduced | 6573 | active |
| AOC3 | 4 | 0.99 | no change in migration or cell number | 5867 | inactive |
| STK36 | 1 | 0.6 | migration reduced | 4700 | active |
| STK36 | 2 | 0.84 | no change in migration or cell number | 6368 | inactive |
| STK36 | 3 | 0.54 | migration reduced | 7310 | active |
| STK36 | 4 | 0.68 | no change in migration or cell number | 5448 | inactive |
| GPR152 | 1 | 0.4 | migration reduced | 4998 | active |
| GPR152 | 2 | 0.8 | no change in migration or cell number | 5540 | inactive |
| GPR152 | 3 | 0.53 | migration reduced | 4162 | active |
| GPR152 | 4 | 0.03 | migration reduced | 3434 | active |
| CMC2 | 1 | 1 | no change in migration or cell number | 5086 | inactive |
| CMC2 | 2 | 0.84 | no change in migration or cell number | 5840 | inactive |
| CMC2 | 3 | 0.57 | too few cells; migration not scored | 3244 | inactive |
| CMC2 | 4 | 0.84 | no change in migration or cell number | 5545 | inactive |
| NKD1 | 1 | 0.68 | no change in migration or cell number | 6475 | inactive |
| NKD1 | 2 | 0.92 | no change in migration or cell number | 6401 | inactive |
| NKD1 | 3 | 0.98 | no change in migration or cell number | 6624 | inactive |
| NKD1 | 4 | 0.95 | no change in migration or cell number | 5910 | inactive |
| PCDH11X | 1 | -0.12 | migration reduced | 3440 | active |
| PCDH11X | 2 | 0.9 | no change in migration or cell number | 5428 | inactive |
| PCDH11X | 3 | 0.82 | no change in migration or cell number | 6494 | inactive |
| PCDH11X | 4 | 1.04 | no change in migration or cell number | 5897 | inactive |
| DBP | 1 | 0.12 | migration reduced | 4796 | active |
| DBP | 2 | 0.96 | no change in migration or cell number | 6710 | inactive |
| DBP | 3 | 0.64 | no change in migration or cell number | 4828 | inactive |
| DBP | 4 | 0.1 | migration reduced | 3350 | active |
| SCGB1C1 | 1 | 0.89 | no change in migration or cell number | 4704 | inactive |
| SCGB1C1 | 2 | 0.99 | no change in migration or cell number | 5317 | inactive |
| SCGB1C1 | 3 | 0.12 | migration reduced | 3866 | active |
| SCGB1C1 | 4 | 0.13 | migration reduced | 4788 | active |
| KCNQ2 | 1 | 0.74 | no change in migration or cell number | 5040 | inactive |
| KCNQ2 | 2 | 0.22 | migration reduced | 4300 | active |
| KCNQ2 | 3 | 0.5 | migration reduced | 5759 | active |
| KCNQ2 | 4 | 0.79 | no change in migration or cell number | 6896 | inactive |
| ROBO1 | 1 | 0.97 | no change in migration or cell number | 6616 | inactive |
| ROBO1 | 2 | 0.98 | no change in migration or cell number | 6376 | inactive |
| ROBO1 | 3 | 1.08 | no change in migration or cell number | 7551 | inactive |
| ROBO1 | 4 | 1.09 | no change in migration or cell number | 5152 | inactive |
| TEK | 1 | 0.12 | migration reduced | 4394 | active |
| TEK | 2 | 0.8 | no change in migration or cell number | 5861 | inactive |
| TEK | 3 | 0.67 | no change in migration or cell number | 6052 | inactive |
| TEK | 4 | 0.62 | no change in migration or cell number | 5008 | inactive |
| HS3ST1 | 1 | 1.08 | no change in migration or cell number | 6084 | inactive |
| HS3ST1 | 2 | 0.4 | migration reduced | 5684 | active |
| HS3ST1 | 3 | 0.14 | migration reduced | 4227 | active |
| HS3ST1 | 4 | 0.7 | no change in migration or cell number | 6080 | inactive |

7 of these entries in another layout:
gene knocked down,reagent no.,migration relative to mock,migration and cell number class,mean nuclei count,activity call
CMC2,1,1,no change in migration or cell number,5086,inactive
CMC2,2,0.84,no change in migration or cell number,5840,inactive
CMC2,3,0.57,too few cells; migration not scored,3244,inactive
CMC2,4,0.84,no change in migration or cell number,5545,inactive
NKD1,1,0.68,no change in migration or cell number,6475,inactive
NKD1,2,0.92,no change in migration or cell number,6401,inactive
NKD1,3,0.98,no change in migration or cell number,6624,inactive
